Assay results: patent US8273404B2, “Extraction of solvents from drug containing polymer reservoirs” (Cordis Corporation, priority 2008, dated 2012)
Several values for one entry are separate records, joined by “and”; a condition that tells them apart may be missing. Equal values may be shown once. At least one compound was matched to its structure with a doubt left.

Assays:
[1] = Liquid formulations of sirolimus and CCI-779: concentration by liquid chromatography/HPLC, visual observation; format: physicochemical; conditions: for Sirolimus conc.: EtOH 2.0 %, H2O 25 %, PEG 200 75 %
[2] = In vitro release kinetics from coated stents; format: physicochemical
[3] = test system: monocyte chemotactic protein (MCP-1); experiment: Cytokine levels in vascular tissue after rapamycin delivery from a stent; format: in vivo; conditions: rapamycin delivered from a stent

Q: For `CO[C@H]1C[C@@H]2CC[C@@H](C)[C@@](O)(O2)C(=O)C(=O)N2CCCC[C@H]2C(=O)O[C@H]([C@H](C)C[C@@H]2CC[C@@H](O)[C@H](OC)C2)CC(=O)[C@H](C)/C=C(\C)[C@@H](O)[C@@H](OC)C(=O)[C@H](C)C[C@H](C)/C=C/C=C/C=C/1C` [rapamycin], which Sirolimus conc. ([1]; listed as Sirolimus) is on record?
A: 2.0 mg/mL and 4 mg/mL

Q: What about the Sirolimus conc. ([1]; listed as sirolimus) of the same compound?
A: 4 mg/mL

Q: What about the “sirolimus concentration in the final solution (HPLC)” value ([1]; ethanol, Vitamin E TPGS, water) of the same compound?
A: 15 mg/mL

Q: What about the “relative elution from layered coating in vitro (in words)” value ([2]; Bx Velocity stent, Panzem inner layer, rapamycin outer layer, EVA/BMA) of the same compound?
A: elutes more slowly than Panzem®

Q: And the release in vitro ([2]; single-layer sirolimus/cilostazol coating of FIG. 83)?
A: ~35%

Q: And the “MCP-1 levels in the vascular wall” value [3]?
A: highly effective in reducing monocyte chemotactic protein (MCP-1) levels
